Here are results for one molecule from article PMC11654669.

Results are given in words; binding and its absence hold for the method and conditions named.

The experiment concerns the target Plasmodium falciparum Niemann-Pick type C1-related protein (PfNCR1) transporter (P. falciparum) (UniProt Q8I266). Put plainly: cryo-EM structure; single-particle cryo-EM of purified PfNCR1 in GDN detergent micelles, 7 mg/ml; 20 mM tris-HCl (pH 7.5), 100 mM NaCl, 0.005% GDN; both purified.

B1: Plasmodium falciparum Niemann-Pick type C1-related protein (PfNCR1) transporter (protein, UniProt Q8I266 1-1470)
chain: MFVKNFIHKLKELKQKSLDKFANLLYDYGGYVYDRPCTFIICSLICCLLLTCGFYFKEHEKDIYKLYSISNSYAYETNETINDFFYKSRRCFILVESNVNLLKPKILRELQKFEEGTKDIEVDLSEINECKTNSELPPEQSHVAKELYKTLIQRSEENLKSGKINGSLFDYSDLDENGKSVLSLAGKENNDDTLIEGDNKNDEETSANNNNNEDDNNEDDNNEDDNNEDDNNENDNNNNNEDDNNNDDDDDEDNEEEDEEKQKSLREKLYRKIYEMLKKKKENIVLDENNPNVNFTDYKDDVFYPYQYIPPMLIKADRCKLQNVFGDKNLNIDLREASDGLKKQITYTLEDICEKKYGDCNFSSLFLYYEKGNGYIDYPIKVDNLDFYVNRRTYKEMMFKGILGNMVYEKSGSKYIIKSANAIMTVIPLLNSHTYEPYALAYEKKLIDYVRFYNLDDIIQDEETNDDNDPFIRFHVFTDRSLEDEVDRISKIDNLTRLLLLIGVLLIFMYALFNNVTSVLYRSKPLCAVMGIFCGFLGFLSGSGFLYFLGVKSVPPAETVPFLVIGVGVDDVFVILNSYSLLFMVKDNKKRIQMCLKDSALAITVTTLTNIIAFLISAISPFYSICAFSLFTASSLFFGYLMVLTFLLSFLCIEAKLEKKKRNIFTGTFHLFRSIFMKSSKKNKKENKENNIHDDGDNDNDEKKKDLSLEVKNNEDDYENISIYEWIHNLYLFEESINKKKKNAALVYASNNGMSSNLNNVNEDGFPNPSKIVSMEDVKKRNIKKDDAYINKEDEEGGGYYNKDDNKKKDILGKKQKKNNNNVTLVSKKGEDNELDVYYENLDEKTNDKYKMNNIKSSKLKYDNDKKDGAIINNRPSSDEEYKEEKDKNKINILNDVFNDITIKPNENILLDRGDVIKSSGYDSSYNDLQSSSLPNPSSNEVLNKTTMVYNETDLKDNKKEIKSSKKNVKDIKKSDMIHDDTYDIINSNNKNILLSSNEINNNSNNTNKFNNNSTELATKDTQQFINGHDKNIYLLSSHDNALFYKYIYEEPKGNIGKYFRSLVKNYYVPFLSSRFGKTIVYIMFTIIIAMSIYGCTLMKKGIKYDKAFPVDSYVRRFTTAKIKYFPDFGDFIEVYYFDKHFINKYRGLEKNTKEAASSFLYSDLTDRQIMNSPKINKNVHWENTNLQEELINMHNTLESQEFVTSVANGFTFFLNKNKSSLRKENPQEFYEIFANWLKKDFVGNLFKNDFVFLNGKLVAWRFHYFQKNVDDSEISSKWLKACKQITKLENHNVQMVCFHLSSIFNETDESIIEVTLINLGITILTILVVTAYIIKGFYSCVIIALIIFLIDLCIFGFMCLCGITMNIISMVILVLSVGFSIDHTSHIVQAFSHSMGRTRDEKMKESLHLMIGPVLHSGLSTWFVISTLFFSNKDFTVIFFQTLSLVLFFSITFSSMFLPVLLSSFGPLH
modifications: N-acetylglucosamine on N165 and N294
Consider B1, for which the binding result is on record as “no binding”.
